In patent publication US20250222062A1, “PEPTIDE INHIBITORS TARGETING THE TBL1-BETA-CATENIN COMPLEX” (THE TRANSLATIONAL GENOMICS RESEARCH INSTITUTE, priority 2022, published 2025):
These are yes or no findings as the source states them, for the method shown. Some results given as binding are weak or reduced against the parent protein; the word gives no strength. Tags and fused reporters may be left off the sequences shown.

T1: Transducin Beta-like protein 1 (TBL1) (UniProt O60907)
T1 sequence (looked up): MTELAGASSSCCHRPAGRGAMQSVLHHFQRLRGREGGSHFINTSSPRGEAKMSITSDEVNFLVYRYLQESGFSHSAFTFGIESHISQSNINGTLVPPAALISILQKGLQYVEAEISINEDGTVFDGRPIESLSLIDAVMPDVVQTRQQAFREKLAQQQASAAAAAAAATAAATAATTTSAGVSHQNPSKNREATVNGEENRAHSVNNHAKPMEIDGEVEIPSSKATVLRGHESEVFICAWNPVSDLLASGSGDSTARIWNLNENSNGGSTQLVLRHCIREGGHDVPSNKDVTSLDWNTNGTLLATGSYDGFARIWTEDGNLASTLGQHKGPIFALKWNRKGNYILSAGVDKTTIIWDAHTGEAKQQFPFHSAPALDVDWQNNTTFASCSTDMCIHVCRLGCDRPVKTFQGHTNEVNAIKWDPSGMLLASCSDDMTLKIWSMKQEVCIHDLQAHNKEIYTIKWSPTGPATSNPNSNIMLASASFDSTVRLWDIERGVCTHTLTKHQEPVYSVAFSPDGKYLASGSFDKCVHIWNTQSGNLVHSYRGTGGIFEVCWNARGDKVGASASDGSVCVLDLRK


molecular target: T1, Transducin Beta-like protein 1 (TBL1); assay: ELISA, dansyl fluorescence of the tagged peptide on TBL1 protein

binding, binds:
NQESKLIILASGGPQALVNIMRTYTYEKLLWTTSRVLKVLSVCS (dansyl tag (position not given)) [dansyl-tagged Peptide 3], LKVLSVCSSNKPAIVEAGGMQALGLHLTDPSQRLVQNCLWTLRN (dansyl tag (position not given)) [dansyl-tagged Peptide 4], VVTCAAGILSNLTCNNYKNKMMVCQVGGIEALVRTVLRAGDRED (dansyl tag (position not given)) [dansyl-tagged Peptide 5], HQLSKKEASRHAIMRSPQMVSAIVRTMQNTNDVETARCTAGTLH (dansyl tag (position not given)) [dansyl-tagged Peptide 1], VDSVLFYAITTLHNLLLHQEGAKMAVRLAGGLQKMVALLNKTNV (dansyl tag (position not given)) [dansyl-tagged Peptide 2]
